For experiment [1], the target named is Flag-TRIM21 (human) (UniProt P19474). Put plainly: co-IP; Flag-TRIM21 expressed in HCT116 cells; MG132 for 6 h; lysis buffer 50 mM Tris-Cl pH 7.5, 0.1% NP-40, 0.1% Triton-100, 150 mM NaCl; Anti-Flag M2 Magnetic Beads overnight at 4 °C; associated CSN6 detected by western blotting. (In western blotting, separated proteins are transferred to a membrane and probed.)

Chains of the proteins cited; added tags and fusions are not shown. Lines headed by an entry give the natural chain unless they say otherwise; changes in a name come on top.
UniProt P19474: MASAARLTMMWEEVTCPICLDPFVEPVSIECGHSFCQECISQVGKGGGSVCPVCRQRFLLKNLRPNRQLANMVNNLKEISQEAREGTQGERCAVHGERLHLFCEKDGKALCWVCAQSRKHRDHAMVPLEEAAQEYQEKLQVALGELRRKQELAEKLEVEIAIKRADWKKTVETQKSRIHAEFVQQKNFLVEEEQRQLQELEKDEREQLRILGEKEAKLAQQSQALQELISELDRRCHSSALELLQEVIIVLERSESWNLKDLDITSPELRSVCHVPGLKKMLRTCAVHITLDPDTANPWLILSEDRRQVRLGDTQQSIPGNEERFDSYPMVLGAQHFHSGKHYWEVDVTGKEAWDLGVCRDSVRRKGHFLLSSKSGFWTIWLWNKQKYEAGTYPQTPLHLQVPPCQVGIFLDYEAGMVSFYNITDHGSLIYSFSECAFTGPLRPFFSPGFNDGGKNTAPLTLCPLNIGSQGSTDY
UniProt Q7L5N1: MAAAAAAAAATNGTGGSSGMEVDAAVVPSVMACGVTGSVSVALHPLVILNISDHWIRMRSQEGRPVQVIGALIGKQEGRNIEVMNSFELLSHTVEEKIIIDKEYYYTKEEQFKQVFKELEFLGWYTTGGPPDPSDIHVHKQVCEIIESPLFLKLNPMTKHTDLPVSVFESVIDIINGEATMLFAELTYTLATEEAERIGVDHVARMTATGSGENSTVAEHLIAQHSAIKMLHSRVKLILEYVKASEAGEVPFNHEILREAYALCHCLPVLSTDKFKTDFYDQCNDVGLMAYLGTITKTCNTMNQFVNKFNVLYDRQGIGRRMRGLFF

Experiment [2] concerns the target TRIM21, endogenous (human (endogenous in HEK293T)) (UniProt P19474). The experiment in a line: co-IP; endogenous proteins; HEK293T cells treated with MG132 for 6 h; TRIM21 antibody or control IgG overnight at 4 °C, then Protein A or Protein G beads; blotted with anti-TRIM21 and anti-CSN6.
In experiment [3] the target is Flag-TRIM21 (human) (UniProt P19474). The experiment in a line: co-IP; HEK293T cells co-transfected with tagged constructs; MG132 for 6 h; Anti-Flag M2 Magnetic Beads overnight at 4 °C; blotted with anti-Flag, anti-HA or anti-Myc; with or without co-expressed CUL1 (Fig. 3b).

These are yes or no findings as the source states them, for the method shown. Binding seen in cells or lysates may run through a third protein. Some binding calls cover weakened binding; strength is not graded here.

Regarding “COP9 signalosome subunit 6 (CSN6), endogenous (from UniProt Q7L5N1 1-327)”, the binding result (with Flag-TRIM21 (human) [1]; in experiment [2]) was “binds” in each case.
For HA-CSN6 (from UniProt Q7L5N1 1-327), in the experiment with Flag-TRIM21 (human) [3], the binding result is listed as “binds”.
The same measure, in the same setting: the same measure for “HA-CSN6-N terminal (1-174 aa) (from UniProt Q7L5N1 1-174) (domain or fragment)”: “binds”; for Myc-CSN6 (from UniProt Q7L5N1 1-327): “binds”.

These data come from article PMC7250844.
